Measurements from PMC9276009.
Results are given in words; binding and its absence hold for the method and conditions named. In cells and extracts the contact can be indirect. Some binding calls cover weakened binding; strength is not graded here.

Protein sequences, listed by entry. Tags and fused reporters are not part of them.
UniProt P01106: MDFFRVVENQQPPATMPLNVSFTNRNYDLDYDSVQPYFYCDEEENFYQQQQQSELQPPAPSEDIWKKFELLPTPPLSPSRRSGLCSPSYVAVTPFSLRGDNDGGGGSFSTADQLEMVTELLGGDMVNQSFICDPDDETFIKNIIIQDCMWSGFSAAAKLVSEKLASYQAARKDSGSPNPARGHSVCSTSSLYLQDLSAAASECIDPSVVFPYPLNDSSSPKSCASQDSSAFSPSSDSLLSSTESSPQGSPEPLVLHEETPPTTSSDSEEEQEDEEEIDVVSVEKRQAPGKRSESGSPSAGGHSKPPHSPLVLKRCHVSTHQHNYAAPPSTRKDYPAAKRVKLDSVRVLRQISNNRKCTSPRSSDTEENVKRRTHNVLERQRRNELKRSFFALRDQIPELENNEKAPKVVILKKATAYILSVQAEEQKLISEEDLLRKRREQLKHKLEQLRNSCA
UniProt Q96AE4: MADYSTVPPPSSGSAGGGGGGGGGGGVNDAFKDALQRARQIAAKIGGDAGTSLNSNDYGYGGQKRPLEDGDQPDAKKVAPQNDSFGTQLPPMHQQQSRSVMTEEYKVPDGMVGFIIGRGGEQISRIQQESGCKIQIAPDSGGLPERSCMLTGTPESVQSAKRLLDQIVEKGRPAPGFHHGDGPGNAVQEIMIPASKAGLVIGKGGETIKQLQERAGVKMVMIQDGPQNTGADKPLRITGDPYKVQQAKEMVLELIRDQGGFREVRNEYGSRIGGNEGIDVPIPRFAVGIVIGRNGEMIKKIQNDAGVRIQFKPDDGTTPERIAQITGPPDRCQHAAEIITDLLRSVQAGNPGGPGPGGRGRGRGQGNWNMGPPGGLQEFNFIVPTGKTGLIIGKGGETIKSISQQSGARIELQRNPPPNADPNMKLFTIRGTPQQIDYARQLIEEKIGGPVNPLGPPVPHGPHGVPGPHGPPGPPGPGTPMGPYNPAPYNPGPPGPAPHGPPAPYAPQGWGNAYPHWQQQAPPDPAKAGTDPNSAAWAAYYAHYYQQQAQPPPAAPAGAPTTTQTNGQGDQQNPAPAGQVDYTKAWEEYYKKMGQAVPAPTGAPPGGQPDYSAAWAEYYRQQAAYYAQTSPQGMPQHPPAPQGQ

How the values were obtained:
[1] = target: c-Myc (human (endogenous in HCT116)) (UniProt P01106); assay: co-IP; Triton X-100 lysate of about 5 x 10^7 cells; rabbit anti-FUBP1 polyclonal antibody on protein A beads cross-linked with DSS; western blotting; reciprocal precipitation by c-Myc; IgG control
[2] = target: Human far upstream element (FUSE) binding protein 1 (human (endogenous in HCT116)) (UniProt Q96AE4); assay: as above

With “Human far upstream element (FUSE) binding protein 1 (from UniProt Q96AE4 1-644)” the binding [1] was “binds”.
With c-Myc (from UniProt P01106 1-454) the binding [2] was “binds”.
